Assay results: patent US9850282B2 (priority 2013, dated 2017)
No end group written: not given here.

Assay: peptide synthesis
Conditions: late stage modification step

Row | Sequence | final HPLC purity (D-arginine salt (1:2)) [%] | final HPLC purity (L-arginine salt (1:1)) [%] | final HPLC purity (L-lysine salt (1:3)) [%] | final HPLC purity (L-ornithine salt (1:2)) [%] | final HPLC purity (L-arginine salt (1:2)) [%]
1 | GEPPPGKPADDAGLV | 99.48 | 98.57 | 99.47 | 99.30 | –
2 | GEPPPGKPADDAGLV [Arg-BPC] | – | – | – | – | 99.54
